# The list shows a part of the results.
# Protein sequences, listed by entry. Tags and fused reporters are not part of them. Lines headed by an entry give the natural chain unless they say otherwise; changes in a name come on top.
# UniProt P49756, whole entry, looked up: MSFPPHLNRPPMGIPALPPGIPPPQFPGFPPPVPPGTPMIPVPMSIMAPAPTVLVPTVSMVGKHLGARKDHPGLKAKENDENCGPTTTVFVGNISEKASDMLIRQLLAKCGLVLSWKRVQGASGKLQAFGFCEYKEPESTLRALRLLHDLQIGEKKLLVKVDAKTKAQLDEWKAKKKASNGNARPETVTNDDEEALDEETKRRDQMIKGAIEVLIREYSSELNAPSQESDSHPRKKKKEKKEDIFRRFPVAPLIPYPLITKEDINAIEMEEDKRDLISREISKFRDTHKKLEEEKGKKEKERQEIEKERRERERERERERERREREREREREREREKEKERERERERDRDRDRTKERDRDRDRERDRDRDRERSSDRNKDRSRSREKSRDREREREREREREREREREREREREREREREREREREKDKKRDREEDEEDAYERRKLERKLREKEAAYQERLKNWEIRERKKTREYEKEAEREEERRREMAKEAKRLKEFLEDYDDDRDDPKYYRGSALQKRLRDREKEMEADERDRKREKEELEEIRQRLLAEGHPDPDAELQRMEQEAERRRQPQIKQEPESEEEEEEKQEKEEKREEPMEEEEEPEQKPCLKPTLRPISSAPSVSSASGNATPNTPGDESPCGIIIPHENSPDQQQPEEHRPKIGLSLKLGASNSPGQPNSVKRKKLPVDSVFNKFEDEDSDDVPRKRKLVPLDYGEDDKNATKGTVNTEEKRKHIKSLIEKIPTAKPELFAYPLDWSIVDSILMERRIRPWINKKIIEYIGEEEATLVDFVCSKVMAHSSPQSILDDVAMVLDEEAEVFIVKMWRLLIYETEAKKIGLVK
# UniProt Q9GZR2: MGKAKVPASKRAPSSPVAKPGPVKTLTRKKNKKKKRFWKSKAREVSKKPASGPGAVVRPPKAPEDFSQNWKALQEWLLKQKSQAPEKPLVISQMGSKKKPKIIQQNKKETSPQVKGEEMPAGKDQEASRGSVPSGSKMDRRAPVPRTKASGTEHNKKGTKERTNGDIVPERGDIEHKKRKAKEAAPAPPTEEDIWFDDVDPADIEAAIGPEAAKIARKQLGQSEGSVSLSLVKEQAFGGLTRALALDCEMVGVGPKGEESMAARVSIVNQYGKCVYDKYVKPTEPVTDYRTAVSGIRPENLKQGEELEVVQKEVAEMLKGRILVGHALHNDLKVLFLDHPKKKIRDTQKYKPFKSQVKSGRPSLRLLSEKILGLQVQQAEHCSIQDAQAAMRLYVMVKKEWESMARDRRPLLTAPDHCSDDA
# UniProt P35241, whole entry, looked up: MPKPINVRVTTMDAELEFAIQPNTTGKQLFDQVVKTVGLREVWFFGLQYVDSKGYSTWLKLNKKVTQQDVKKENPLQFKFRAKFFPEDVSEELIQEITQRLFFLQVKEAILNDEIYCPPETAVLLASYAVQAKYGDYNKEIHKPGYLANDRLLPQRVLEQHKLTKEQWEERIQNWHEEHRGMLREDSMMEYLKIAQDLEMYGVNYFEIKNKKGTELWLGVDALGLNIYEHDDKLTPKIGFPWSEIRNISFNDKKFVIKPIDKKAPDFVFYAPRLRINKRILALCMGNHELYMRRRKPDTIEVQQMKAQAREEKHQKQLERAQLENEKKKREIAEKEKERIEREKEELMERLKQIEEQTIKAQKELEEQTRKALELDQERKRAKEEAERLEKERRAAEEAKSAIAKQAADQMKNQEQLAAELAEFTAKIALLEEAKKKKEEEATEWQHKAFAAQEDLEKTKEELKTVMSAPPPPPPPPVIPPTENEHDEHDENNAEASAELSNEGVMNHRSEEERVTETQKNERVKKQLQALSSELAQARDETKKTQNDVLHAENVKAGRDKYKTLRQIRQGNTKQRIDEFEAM
# UniProt Q8WWW0: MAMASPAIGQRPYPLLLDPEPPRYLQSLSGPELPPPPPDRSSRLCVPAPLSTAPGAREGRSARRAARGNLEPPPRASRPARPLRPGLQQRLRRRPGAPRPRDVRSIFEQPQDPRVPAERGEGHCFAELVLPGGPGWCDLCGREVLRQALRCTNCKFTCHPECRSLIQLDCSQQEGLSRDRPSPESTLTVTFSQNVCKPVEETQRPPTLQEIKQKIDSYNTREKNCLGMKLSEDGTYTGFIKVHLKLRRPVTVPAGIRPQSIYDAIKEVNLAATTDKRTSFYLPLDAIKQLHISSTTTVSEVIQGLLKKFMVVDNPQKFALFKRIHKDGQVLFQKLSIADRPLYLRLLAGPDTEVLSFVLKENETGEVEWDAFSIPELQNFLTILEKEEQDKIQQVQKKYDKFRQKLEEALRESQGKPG
# UniProt Q5TC82: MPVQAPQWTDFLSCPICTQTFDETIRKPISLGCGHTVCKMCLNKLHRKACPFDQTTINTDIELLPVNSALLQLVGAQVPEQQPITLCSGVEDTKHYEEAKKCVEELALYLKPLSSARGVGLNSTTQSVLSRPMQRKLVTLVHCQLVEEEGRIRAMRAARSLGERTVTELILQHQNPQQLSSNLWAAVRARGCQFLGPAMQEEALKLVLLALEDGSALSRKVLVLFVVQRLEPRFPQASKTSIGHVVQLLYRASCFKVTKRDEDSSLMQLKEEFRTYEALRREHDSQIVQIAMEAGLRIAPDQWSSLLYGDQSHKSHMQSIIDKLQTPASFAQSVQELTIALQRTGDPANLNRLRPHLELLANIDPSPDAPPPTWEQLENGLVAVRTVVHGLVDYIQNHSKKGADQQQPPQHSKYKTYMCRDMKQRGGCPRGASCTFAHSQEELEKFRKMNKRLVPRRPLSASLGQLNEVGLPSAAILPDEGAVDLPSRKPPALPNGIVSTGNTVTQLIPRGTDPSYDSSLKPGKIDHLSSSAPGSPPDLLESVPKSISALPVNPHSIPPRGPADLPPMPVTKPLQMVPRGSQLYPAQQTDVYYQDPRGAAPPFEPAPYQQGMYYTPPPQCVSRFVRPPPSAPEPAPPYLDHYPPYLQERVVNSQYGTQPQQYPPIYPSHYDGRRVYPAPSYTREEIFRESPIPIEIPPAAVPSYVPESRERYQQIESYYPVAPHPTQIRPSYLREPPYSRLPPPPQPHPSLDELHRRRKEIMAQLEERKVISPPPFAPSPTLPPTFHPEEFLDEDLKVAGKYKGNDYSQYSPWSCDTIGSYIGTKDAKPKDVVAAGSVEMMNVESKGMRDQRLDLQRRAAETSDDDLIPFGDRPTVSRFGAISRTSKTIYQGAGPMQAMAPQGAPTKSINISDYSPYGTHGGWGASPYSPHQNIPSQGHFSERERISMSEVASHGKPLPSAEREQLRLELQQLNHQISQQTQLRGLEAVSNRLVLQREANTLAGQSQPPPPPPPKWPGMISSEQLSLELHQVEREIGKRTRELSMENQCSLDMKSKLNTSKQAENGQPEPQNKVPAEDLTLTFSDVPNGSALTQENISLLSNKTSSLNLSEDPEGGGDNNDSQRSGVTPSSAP
# UniProt Q9H1K0: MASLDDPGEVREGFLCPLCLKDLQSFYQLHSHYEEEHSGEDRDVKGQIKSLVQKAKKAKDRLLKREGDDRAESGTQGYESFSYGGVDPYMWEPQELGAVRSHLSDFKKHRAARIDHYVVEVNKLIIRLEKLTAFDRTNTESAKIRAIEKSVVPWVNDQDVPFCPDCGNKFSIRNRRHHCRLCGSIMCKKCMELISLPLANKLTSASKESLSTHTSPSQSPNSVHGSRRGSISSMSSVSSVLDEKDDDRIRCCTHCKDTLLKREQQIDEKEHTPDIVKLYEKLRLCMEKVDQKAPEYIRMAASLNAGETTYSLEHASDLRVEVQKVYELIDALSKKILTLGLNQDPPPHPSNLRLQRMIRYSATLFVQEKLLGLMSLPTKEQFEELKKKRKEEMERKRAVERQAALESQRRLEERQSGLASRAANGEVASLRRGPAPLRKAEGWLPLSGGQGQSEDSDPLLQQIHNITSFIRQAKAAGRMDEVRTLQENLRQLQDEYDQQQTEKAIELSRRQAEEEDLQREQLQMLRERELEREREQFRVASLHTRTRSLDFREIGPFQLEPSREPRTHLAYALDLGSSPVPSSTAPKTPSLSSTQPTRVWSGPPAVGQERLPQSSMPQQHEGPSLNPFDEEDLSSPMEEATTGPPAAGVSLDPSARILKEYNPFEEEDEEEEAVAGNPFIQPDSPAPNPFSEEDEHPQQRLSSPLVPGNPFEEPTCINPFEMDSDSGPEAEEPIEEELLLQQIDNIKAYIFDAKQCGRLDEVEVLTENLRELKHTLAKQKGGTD
# UniProt Q2KHR2: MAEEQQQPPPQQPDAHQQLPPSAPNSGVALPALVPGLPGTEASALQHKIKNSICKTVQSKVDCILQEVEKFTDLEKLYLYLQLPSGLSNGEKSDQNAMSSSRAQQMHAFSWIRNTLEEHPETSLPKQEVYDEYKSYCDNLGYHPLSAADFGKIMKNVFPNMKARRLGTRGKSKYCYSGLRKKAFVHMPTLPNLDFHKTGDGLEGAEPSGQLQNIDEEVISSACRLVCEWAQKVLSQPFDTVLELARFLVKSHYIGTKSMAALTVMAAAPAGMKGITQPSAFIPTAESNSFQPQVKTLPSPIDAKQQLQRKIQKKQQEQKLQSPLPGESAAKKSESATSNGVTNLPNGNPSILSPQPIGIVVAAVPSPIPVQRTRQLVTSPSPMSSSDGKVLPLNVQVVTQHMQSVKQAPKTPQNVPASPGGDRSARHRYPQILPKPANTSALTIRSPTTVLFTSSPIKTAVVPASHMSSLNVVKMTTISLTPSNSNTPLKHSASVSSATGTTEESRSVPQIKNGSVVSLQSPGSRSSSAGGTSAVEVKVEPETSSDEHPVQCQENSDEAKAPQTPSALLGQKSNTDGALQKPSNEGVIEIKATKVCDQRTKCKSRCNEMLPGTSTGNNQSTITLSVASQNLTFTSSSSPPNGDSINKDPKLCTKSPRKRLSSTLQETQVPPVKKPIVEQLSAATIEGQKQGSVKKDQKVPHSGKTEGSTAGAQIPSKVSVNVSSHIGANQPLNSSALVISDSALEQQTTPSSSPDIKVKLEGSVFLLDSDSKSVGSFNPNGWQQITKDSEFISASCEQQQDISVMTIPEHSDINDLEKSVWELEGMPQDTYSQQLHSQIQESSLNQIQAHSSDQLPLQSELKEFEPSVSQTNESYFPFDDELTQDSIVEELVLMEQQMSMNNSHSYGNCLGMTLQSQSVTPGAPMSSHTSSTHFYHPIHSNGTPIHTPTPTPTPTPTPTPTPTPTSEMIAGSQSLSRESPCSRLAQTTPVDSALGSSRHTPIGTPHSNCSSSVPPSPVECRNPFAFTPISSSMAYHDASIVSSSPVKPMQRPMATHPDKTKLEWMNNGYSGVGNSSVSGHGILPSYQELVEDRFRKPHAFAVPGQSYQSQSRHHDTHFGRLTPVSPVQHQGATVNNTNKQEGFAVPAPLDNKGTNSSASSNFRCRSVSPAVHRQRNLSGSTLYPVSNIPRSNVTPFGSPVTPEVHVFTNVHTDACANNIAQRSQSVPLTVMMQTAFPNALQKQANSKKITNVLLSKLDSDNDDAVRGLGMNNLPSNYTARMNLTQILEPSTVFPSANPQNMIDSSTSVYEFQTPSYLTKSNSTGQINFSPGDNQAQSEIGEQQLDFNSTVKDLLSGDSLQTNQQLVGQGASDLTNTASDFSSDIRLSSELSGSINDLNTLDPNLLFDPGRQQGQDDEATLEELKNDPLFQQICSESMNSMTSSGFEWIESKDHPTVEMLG
# UniProt P06400: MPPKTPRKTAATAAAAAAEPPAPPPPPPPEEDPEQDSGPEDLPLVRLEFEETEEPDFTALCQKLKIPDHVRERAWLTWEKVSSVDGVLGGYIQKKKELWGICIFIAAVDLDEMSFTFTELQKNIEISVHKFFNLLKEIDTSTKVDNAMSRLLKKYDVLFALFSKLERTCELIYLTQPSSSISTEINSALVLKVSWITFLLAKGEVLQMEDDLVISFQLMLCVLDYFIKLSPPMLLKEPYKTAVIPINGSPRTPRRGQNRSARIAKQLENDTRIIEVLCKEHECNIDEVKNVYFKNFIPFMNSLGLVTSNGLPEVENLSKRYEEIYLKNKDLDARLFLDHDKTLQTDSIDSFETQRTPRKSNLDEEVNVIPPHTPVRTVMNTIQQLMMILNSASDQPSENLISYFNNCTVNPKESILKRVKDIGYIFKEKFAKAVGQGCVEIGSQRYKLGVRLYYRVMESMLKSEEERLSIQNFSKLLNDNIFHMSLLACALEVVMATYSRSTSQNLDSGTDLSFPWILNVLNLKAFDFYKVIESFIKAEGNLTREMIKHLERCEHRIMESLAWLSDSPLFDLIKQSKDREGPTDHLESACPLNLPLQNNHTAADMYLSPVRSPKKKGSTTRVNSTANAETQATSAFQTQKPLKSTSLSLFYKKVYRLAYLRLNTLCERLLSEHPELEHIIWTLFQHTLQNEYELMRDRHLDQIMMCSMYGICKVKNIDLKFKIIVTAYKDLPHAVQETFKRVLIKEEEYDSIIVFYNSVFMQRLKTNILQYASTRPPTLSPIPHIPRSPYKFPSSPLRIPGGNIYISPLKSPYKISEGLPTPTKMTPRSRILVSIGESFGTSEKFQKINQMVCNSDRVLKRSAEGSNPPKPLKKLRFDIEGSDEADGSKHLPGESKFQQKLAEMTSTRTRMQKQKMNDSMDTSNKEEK
# Key:
# Assay in all cases: log2 fold change, soluble protein after heating vs DMSO (PISA); higher = thermal stabilisation; K562 lysate, 10 uM; active = over 0.2 and 3.5 SD of the protein, either way, in both replicates (recomputed)
# alvocidib = compound: CN1CC[C@H](c2c(O)cc(O)c3c(=O)cc(-c4ccccc4Cl)oc23)[C@H](O)C1 [alvocidib]
# Procedure, shortened: (§1)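 K562 pellets were dounce-homogenised in PBS pH 7.4 containing 1 mM MgCl2, and the crude extract, at 1 mg/mL protein, was exposed to 10 μM compound for 30 min. Aliquots were heated for 3 min across 48°C-58°C, pooled, brought to 0.5% NP-40 at 4°C and spun at 21,000xg for 90 min, with the supernatant taken as soluble protein. TMTpro 16plex LC-MS/MS with equalised channel sums quantified that protein. Values are log-two fold changes in thermal stability relative to solvent controls, taken from duplicates.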
# Tubastatin A = compound: CN1CCc2c(c3ccccc3n2Cc2ccc(C(=O)NO)cc2)C1 [Tubastatin A]
# Procedure, shortened: as §1
# [1] = compound: CNC(=O)C1=CC=CC=C1NC2=NC(=NC=C2Cl)NC3=C(C=C(C=C3)N4CCOCC4)OC
# Procedure, shortened: as §1
# defactinib = compound: CNC(=O)c1ccc(Nc2ncc(C(F)(F)F)c(NCc3nccnc3N(C)S(C)(=O)=O)n2)cc1 [defactinib]
# Procedure, shortened: as §1
# [2] = compound: CNc1nc(-c2ccc3c(N)n[nH]c3c2)cc(N2C[C@@H](C(=O)NC3CCCCC3)CC[C@H]2C)n1
# Procedure, shortened: as §1
# encorafenib = compound: COC(=O)N[C@@H](C)CNc1nccc(-c2cn(C(C)C)nc2-c2cc(Cl)cc(NS(C)(=O)=O)c2F)n1 [encorafenib]
# Procedure, shortened: as §1
# [3] = compound: COC(=O)[C@H](CCSC)NC(=O)C1=C(C=C(C=C1)NC[C@H](CS)N)C2=CC=CC=C2
# Procedure, shortened: as §1
# alisertib = compound: COc1cc(Nc2ncc3c(n2)-c2ccc(Cl)cc2C(c2c(F)cccc2OC)=NC3)ccc1C(=O)O [alisertib]
# Procedure, shortened: as §1
# [4] = compound: COc1cc2nc(-c3cc(F)ccc3O)nc(N[C@@H]3CNC[C@H]3C(C)(C)O)c2cc1OC
# Procedure, shortened: as §1
# gefitinib = compound: COc1cc2ncnc(Nc3ccc(F)c(Cl)c3)c2cc1OCCCN1CCOCC1 [gefitinib]
# Procedure, shortened: as §1
# lapatinib = compound: CS(=O)(=O)CCNCc1ccc(-c2ccc3ncnc(Nc4ccc(OCc5cccc(F)c5)c(Cl)c4)c3c2)o1 [lapatinib]
# Procedure, shortened: as §1
# pictilisib = compound: CS(=O)(=O)N1CCN(Cc2cc3nc(-c4cccc5[nH]ncc45)nc(N4CCOCC4)c3s2)CC1 [pictilisib]
# Procedure, shortened: as §1
# crizotinib = compound: C[C@@H](Oc1cc(-c2cnn(C3CCNCC3)c2)cnc1N)c1c(Cl)ccc(F)c1Cl [crizotinib]
# Procedure, shortened: as §1
# [5] = compound: C[C@H](C1=CC=C(C=C1)C(=O)NC2=C3C=CNC3=NC=C2)N
# Procedure, shortened: as §1
# duvelisib = compound: C[C@H](Nc1ncnc2nc[nH]c12)c1cc2cccc(Cl)c2c(=O)n1-c1ccccc1 [duvelisib]
# Procedure, shortened: as §1
# gandotinib = compound: Cc1cc(Nc2cc(CN3CCOCC3)c3nc(C)c(Cc4ccc(Cl)cc4F)n3n2)n[nH]1 [gandotinib]
# Procedure, shortened: as §1
# tozasertib = compound: Cc1cc(Nc2cc(N3CCN(C)CC3)nc(Sc3ccc(NC(=O)C4CC4)cc3)n2)n[nH]1 [tozasertib]
# Procedure, shortened: as §1
# doramapimod = compound: Cc1ccc(-n2nc(C(C)(C)C)cc2NC(=O)Nc2ccc(OCCN3CCOCC3)c3ccccc23)cc1 [doramapimod]
# Procedure, shortened: as §1
# bafetinib = compound: Cc1ccc(NC(=O)c2ccc(CN3CC[C@H](N(C)C)C3)c(C(F)(F)F)c2)cc1Nc1nccc(-c2cncnc2)n1 [bafetinib]
# Procedure, shortened: as §1
# [6] = compound: Cc1cccc(CC(=O)N2CCc3c2ccc(-c2cn(C)c4ncnc(N)c24)c3F)n1
# Procedure, shortened: as §1
Target,log2 fold change (alvocidib),log2 fold change (Tubastatin A),log2 fold change [1],log2 fold change (defactinib),log2 fold change [2],log2 fold change (encorafenib),log2 fold change [3],log2 fold change (alisertib),log2 fold change [4],log2 fold change (gefitinib),log2 fold change (lapatinib),log2 fold change (pictilisib),log2 fold change (crizotinib),log2 fold change [5],log2 fold change (duvelisib),log2 fold change (gandotinib),log2 fold change (tozasertib),log2 fold change (doramapimod),log2 fold change (bafetinib),log2 fold change [6]
RBM34 (UniProt P42696),inactive: 0.003,inactive: -0.007,inactive: -0.009,inactive: 0.037,inactive: 0.021,inactive: 0.05,inactive: 0.03,inactive: -0.002,inactive: 0.013,inactive: -0.028,inactive: -0.01,inactive: -0.036,inactive: -0.07,inactive: -0.021,inactive: -0.018,inactive: -0.016,inactive: -0.019,inactive: -0.001,inactive: -0.086,inactive: 0.037
RBM25 (UniProt P49756),inactive: -0.046,inactive: 0.071,inactive: -0.014,inactive: -0.009,inactive: 0.02,inactive: 0.046,inactive: 0.008,inactive: 0.031,inactive: -0.014,inactive: 0.005,inactive: -0.027,inactive: 0.035,inactive: 0.024,inactive: -0.007,inactive: -0.052,inactive: 0.048,inactive: 0.015,inactive: 0.134,inactive: -0.013,inactive: 0.038
REXO4 (UniProt Q9GZR2),inactive: 0.089,inactive: -0.108,inactive: 0.026,inactive: 0.013,inactive: 0.032,inactive: -0.007,inactive: 0.08,inactive: -0.008,inactive: 0.024,inactive: -0.029,inactive: 0,inactive: -0.128,inactive: 0.017,active: 0.349,inactive: -0.003,inactive: -0.169,inactive: -0.017,inactive: -0.056,inactive: -0.06,inactive: -0.139
RDX (UniProt P35241),inactive: 0.116,inactive: 0.042,inactive: -0.002,inactive: -0.009,inactive: 0.034,inactive: -0.047,inactive: -0.033,inactive: -0.018,inactive: 0,inactive: 0.013,inactive: -0.018,inactive: 0.02,inactive: 0.063,active: 0.546,inactive: 0.005,inactive: -0.093,inactive: -0.005,inactive: -0.045,inactive: 0.077,inactive: -0.136
RCC2 (UniProt Q9P258),inactive: 0.02,inactive: 0.015,inactive: -0.03,inactive: -0.026,inactive: 0.009,inactive: -0.012,inactive: -0.044,inactive: 0.014,inactive: -0.013,inactive: -0.007,inactive: -0.003,inactive: 0.021,inactive: -0.014,inactive: -0.005,inactive: 0.018,inactive: -0.02,inactive: 0.024,inactive: -0.011,inactive: 0.002,inactive: -0.022
RASSF5 (UniProt Q8WWW0),inactive: 0.006,inactive: 0.038,inactive: 0.099,inactive: 0.069,inactive: -0.041,inactive: -0.019,inactive: -0.066,inactive: -0.037,inactive: 0.112,inactive: -0.052,inactive: -0.018,inactive: -0.068,inactive: 0.06,inactive: -0.019,inactive: 0.057,inactive: 0.245,inactive: 0.09,inactive: -0.056,inactive: 0.091,inactive: 0.086
RC3H1 (UniProt Q5TC82),inactive: -0.013,inactive: -0.103,inactive: 0.015,inactive: -0.04,inactive: -0.026,inactive: 0.061,inactive: -0.025,inactive: -0.002,inactive: 0.072,inactive: -0.074,inactive: 0.026,inactive: 0.011,inactive: -0.03,inactive: 0.044,inactive: -0.044,inactive: -0.122,inactive: 0.042,inactive: -0.007,inactive: -0.025,inactive: -0.044
RBM5 (UniProt P52756),inactive: -0.226,inactive: -0.059,inactive: 0.021,inactive: 0.01,inactive: 0.028,inactive: 0.044,inactive: 0.134,inactive: -0.035,inactive: 0.182,inactive: 0.18,inactive: 0.029,inactive: -0.013,inactive: 0.005,inactive: -0.268,inactive: -0.058,inactive: -0.015,inactive: 0,inactive: 0.058,inactive: -0.051,inactive: 0.089
RFC4 (UniProt P35249),inactive: -0.018,inactive: -0.119,inactive: 0.018,inactive: 0.009,inactive: -0.043,inactive: 0.018,inactive: 0.088,inactive: 0.022,inactive: 0.003,inactive: -0.006,inactive: -0.01,inactive: -0.004,inactive: -0.027,inactive: -0.065,inactive: 0.01,inactive: -0.028,inactive: -0.027,inactive: 0.035,inactive: -0.018,inactive: 0.041
RBSN (UniProt Q9H1K0),inactive: -0.031,inactive: 0.005,inactive: -0.047,inactive: 0.015,inactive: -0.014,inactive: 0.089,inactive: -0.048,inactive: 0.019,inactive: 0.015,inactive: 0.059,inactive: -0.008,inactive: -0.024,inactive: -0.012,inactive: -0.032,inactive: 0.093,inactive: 0.019,inactive: 0.13,inactive: -0.026,inactive: 0.026,inactive: 0.059
RBM27 (UniProt Q9P2N5),inactive: -0.132,inactive: -0.037,inactive: -0.026,inactive: -0.017,inactive: -0.033,inactive: 0.037,inactive: -0.13,inactive: 0.019,inactive: -0.042,inactive: -0.041,inactive: 0.043,inactive: -0.021,inactive: 0.095,inactive: -0.049,inactive: -0.024,inactive: -0.181,inactive: 0.04,inactive: 0.021,inactive: -0.051,inactive: 0.042
RARS (UniProt P54136),inactive: 0.032,inactive: -0.1,inactive: -0.006,inactive: 0.024,inactive: -0.035,inactive: -0.001,inactive: 0.128,inactive: 0.026,inactive: -0.009,inactive: -0.023,inactive: 0.003,inactive: 0.019,inactive: -0.047,inactive: 0.039,inactive: -0.018,inactive: -0.078,inactive: 0.019,inactive: 0.042,inactive: -0.029,inactive: 0.041
RAPGEF6 isoform 4 (UniProt Q8TEU7),inactive: -0.056,inactive: -0.048,inactive: 0.006,inactive: 0.031,inactive: 0.001,inactive: 0.009,inactive: 0.059,inactive: 0.017,inactive: 0.001,inactive: -0.024,inactive: 0.027,inactive: -0.058,inactive: -0.003,inactive: -0.032,inactive: 0.019,inactive: -0.009,inactive: 0.035,inactive: 0.021,inactive: -0.046,inactive: 0.038
RFX7 (UniProt Q2KHR2),inactive: 0.028,inactive: -0.044,inactive: -0.038,inactive: 0.132,inactive: 0.024,inactive: 0.167,inactive: 0.037,inactive: -0.081,inactive: 0.159,inactive: 0.005,inactive: 0.045,inactive: -0.017,inactive: -0.021,inactive: -0.002,inactive: 0.038,inactive: -0.194,inactive: 0.107,inactive: -0.031,inactive: 0.03,inactive: 0.051
RELCH isoform 2 (UniProt Q9P260),inactive: 0.036,inactive: -0.044,inactive: 0.04,inactive: -0.002,inactive: 0.038,inactive: 0.033,inactive: 0.008,inactive: -0.017,inactive: 0.006,inactive: 0.006,inactive: 0.026,inactive: -0.036,inactive: -0.074,inactive: 0.009,inactive: -0.017,inactive: -0.036,inactive: -0.016,inactive: 0.027,inactive: -0.004,inactive: -0.007
RB1 (UniProt P06400),inactive: 0,inactive: 0.017,inactive: -0.017,inactive: 0.007,inactive: -0.027,inactive: 0.026,inactive: 0.019,inactive: 0.01,inactive: 0.012,inactive: 0.007,inactive: -0.01,inactive: -0.004,inactive: 0.005,inactive: -0.057,inactive: 0.011,inactive: -0.019,inactive: 0.011,inactive: 0.026,inactive: -0.027,inactive: 0.049

# Single records, from the list above. Values in the order: log2 fold change (alvocidib)	log2 fold change (Tubastatin A)	log2 fold change [1]	log2 fold change (defactinib)	log2 fold change [2]	log2 fold change (encorafenib)	log2 fold change [3]	log2 fold change (alisertib)	log2 fold change [4]	log2 fold change (gefitinib)	log2 fold change (lapatinib)	log2 fold change (pictilisib)	log2 fold change (crizotinib)	log2 fold change [5]	log2 fold change (duvelisib)	log2 fold change (gandotinib)	log2 fold change (tozasertib)	log2 fold change (doramapimod)	log2 fold change (bafetinib)	log2 fold change [6]
# RARS (UniProt P54136) in the list: inactive: 0.032	inactive: -0.1	inactive: -0.006	inactive: 0.024	inactive: -0.035	inactive: -0.001	inactive: 0.128	inactive: 0.026	inactive: -0.009	inactive: -0.023	inactive: 0.003	inactive: 0.019	inactive: -0.047	inactive: 0.039	inactive: -0.018	inactive: -0.078	inactive: 0.019	inactive: 0.042	inactive: -0.029	inactive: 0.041
# RB1 (UniProt P06400) in the list: inactive: 0	inactive: 0.017	inactive: -0.017	inactive: 0.007	inactive: -0.027	inactive: 0.026	inactive: 0.019	inactive: 0.01	inactive: 0.012	inactive: 0.007	inactive: -0.01	inactive: -0.004	inactive: 0.005	inactive: -0.057	inactive: 0.011	inactive: -0.019	inactive: 0.011	inactive: 0.026	inactive: -0.027	inactive: 0.049

# From the supplement of paper PMC10849652
